For this series the following is noted: PAMPA, 30 min, 50 µM.

As for `COc1ccc2cc([C@H](C)C(=O)O)ccc2c1` [naproxen], the “Pe(pH 5.0)” value is reported as 525 cm s^−1, the “Pe(pH 6.2)” value was determined as 58 cm s^−1 and the “Pe(pH 7.4)” value was 4 cm s^−1.

For the molecule `CCCCc1oc2ccccc2c1C(=O)c1cc(I)c(OCCN(CC)CC)c(I)c1` [amiodarone], the “Pe(pH 5.0)” value is 581 cm s^−1, the “Pe(pH 6.2)” value was found to be 1110 cm s^−1 and the “Pe(pH 7.4)” value worked out at 1180 cm s^−1.

The record behind these values is patent publication US8175815B2, “Method for assessing absorption properties of low solubility compounds” (F. Hoffmann-La Roche AG, priority 2006, dated 2012).
